In PubChem BioAssay AID1347076 (National Center for Advancing Translational Sciences (NCATS), 2019):
The campaign covered roughly 400,000 compounds. About 13,000 (3.2%) were called active. The shares of active, inactive and inconclusive entries below differ from those in the screen. Calls follow the shape of the dose curve; as a rule, active = well fitted cell-killing curve with a large enough effect; inconclusive = small, poorly fitted or top-dose-only effect, or effect the other way; inactive = flat fitted curve, though single readings scatter. A potency beside an inconclusive call is a rough fit, not a confirmed value.

experiment: qHTS assay for MDR1-selective chemotherapeutics: Primary screen using the drug-selected MDR subline cells KB-V1; conditions: KB-V1 MDR cells viability, CellTiter-Glo, 72 h; activity change, negative = cytotoxicity: at 46.1 µM (top of the series); also: nearly all actives have a fitted effect of over 60% in size
Procedure, shortened: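 Compound-treated KB-V1 multidrug-resistant cells, 72 h, 37 degrees C; viability by CellTiter-Glo. Fitted qHTS curves give the values.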
% is scaled to controls: 0 for no effect and ±100 for the full control effect; potency is read from the fitted curve at half-maximal effect.

| SMILES | Potency | activity change, negative = cytotoxicity |
| --- | --- | --- |
| Cc1cc(-c2n[nH]c(=S)n2/N=C/C(Cl)=C/c2ccccc2)n[nH]1 | active: 20.6 µM | – |
| COc1ccc(N2CCN(C(=O)CNC(=O)c3ccc(Br)o3)CC2)cc1 | inconclusive: 20.6 µM [cytotoxic, single point] | – |
| COc1ccc(NC(=O)c2cc(-c3ccc(OC)c(OC)c3)nc3ccccc23)c(OC)c1 | inconclusive: 10.3 µM [cytotoxic, partial curve, poor fit] | – |
| O=C(COC(=O)C1COc2ccccc2O1)Nc1ccccc1OC(F)F (configuration not stated) | inactive | – |
| Cc1cccnc1C(NC(=O)C1CCN(Cc2ccc(Oc3ccccc3)cc2)CC1)c1ccccc1 (configuration not stated) | inconclusive: 23.1 µM [cytotoxic, single point] | – |
| C=CCNC(=O)COc1ccc(Br)cc1Cl | inconclusive: 23.1 µM [cytotoxic, single point] | – |
| COc1ccc(/C=N/n2c(SC)nnc2-c2ccccc2)cc1C | active: 18.4 µM | – |
| CCCc1ccc(-c2cc(C(=O)NCCc3ccc(S(N)(=O)=O)cc3)c3ccccc3n2)cc1 | inactive | – |
| CC(C)c1ccc(NC2CCCN(C(=O)c3ccco3)C2)cc1 (configuration not stated) | inconclusive: 20.6 µM [cytotoxic, single point] | – |
| COc1ccc(OC)c(NC(=O)COC(=O)c2nc(Cl)ccc2Cl)c1 | inconclusive: 16.4 µM [rising, partial curve, poor fit] | – |
| O=C(NCc1cccnc1)[C@@H]1CC=C[C@@H]2CCN(Cc3ccc(Cl)c(Cl)c3)C(=O)[C@@H]21 | inconclusive: 11.6 µM [cytotoxic, partial curve] | – |
| O=C(c1ccc(F)c(F)c1)N1CCCc2ccccc21 | inconclusive: 0.58 µM [rising, partial curve, poor fit] | – |
| O=C(NC1CCCCC1)C(c1cccnc1)N(C(=O)c1ccc(Cl)nc1)C1CCCCC1 (configuration not stated) | inconclusive: 1.84 µM [cytotoxic, full curve] | – |
| Cc1ccnc2c(N)cccc12 | inactive | – |
| Cc1cccc(Cn2cnc3c(nnn3Cc3ccccc3F)c2=O)c1 | inactive | – |
| O=c1[nH]ncc(N/N=C\c2cccs2)c1Cl | active: 3.26 µM | – |
| CC1CCCC(NC(=O)COC(=O)c2n[nH]c3ccccc23)C1C (configuration not stated) | inactive | – |
| CCCCn1c(NS(=O)(=O)c2ccccc2)c(S(=O)(=O)c2ccc(C)cc2)c2nc3ccccc3nc21 | inconclusive: 23.1 µM [cytotoxic, single point] | – |
| c1ccc2c(c1)oc1c(-c3ccc4nccn4c3)cccc12 | inconclusive: 29.1 µM [cytotoxic, single point] | – |
| COc1cccc(NC(=O)CCS(=O)(=O)c2cc3c(cc2Cl)NC(=O)CO3)c1 | inconclusive: 29.1 µM [rising, single point] | – |
| Cc1ccc(Cn2ccsc2=NC(=O)CCl)cc1 | inconclusive: 25.9 µM [cytotoxic, single point] | – |
| Nc1nc(NCc2ccccc2)nc(-c2ccccc2)n1 | inconclusive: 29.1 µM [cytotoxic, single point] | – |
| CCOC(=O)C1=C(CSc2nc(-c3ccncc3)ccc2C#N)OC(N)=C(C#N)C1c1cccnc1 (configuration not stated) | inconclusive: 29.1 µM [rising, single point] | – |
| CC(C)CC1Nc2ncnc(N3CCOCC3)c2N(Cc2ccc(Cl)cc2)C1=O (configuration not stated) | inactive | – |

Taken from above:
Cc1cc(-c2n[nH]c(=S)n2/N=C/C(Cl)=C/c2ccccc2)n[nH]1 – Potency: active: 20.6 µM
COc1ccc(OC)c(NC(=O)COC(=O)c2nc(Cl)ccc2Cl)c1 – Potency: inconclusive: 16.4 µM [rising, partial curve, poor fit]
COc1ccc(NC(=O)c2cc(-c3ccc(OC)c(OC)c3)nc3ccccc23)c(OC)c1 – Potency: inconclusive: 10.3 µM [cytotoxic, partial curve, poor fit]
c1ccc2c(c1)oc1c(-c3ccc4nccn4c3)cccc12 – Potency: inconclusive: 29.1 µM [cytotoxic, single point]
CC(C)CC1Nc2ncnc(N3CCOCC3)c2N(Cc2ccc(Cl)cc2)C1=O (configuration not stated) – Potency: inactive

Further entries follow:

| SMILES | Potency | activity change, negative = cytotoxicity |
| --- | --- | --- |
| Cc1sc2nc(CSCC(=O)N(C)c3ccccc3)[nH]c(=O)c2c1C | inconclusive: 20.6 µM [cytotoxic, partial curve, poor fit] | – |
| CCCS(=O)(=O)N1CCCC(c2nc(-c3ccc(OC)cc3)no2)C1 (configuration not stated) | active: 13 µM | – |
| O=C(NCc1nnc(SCC(=O)N2CCc3ccccc32)o1)c1ccco1 | – | inconclusive: 9.31% |
| COc1ccc(Cl)cc1S(=O)(=O)N1CCC(c2ccncc2)CC1 | inconclusive: 13 µM [cytotoxic, partial curve, poor fit] | – |
| COc1cccc(/C=C/c2nc3ccccc3c(=O)n2-c2ccc(C)c(C)c2)c1OC | inconclusive: 16.4 µM [cytotoxic, single point] | – |
| Cc1ccc(-c2noc(CCC(=O)Nc3ccccc3N3CCN(C)CC3)n2)cc1 | active: 20.6 µM | – |
| O=C(C(Cc1ccccc1)N1C(=O)C2C3C=CC(C3)C2C1=O)N1CCCCC1 (configuration not stated) | inconclusive: 18.4 µM [cytotoxic, partial curve, poor fit] | – |
| CNC(=S)N(CCc1ccc(S(N)(=O)=O)cc1)C1CC(=O)N(c2ccccc2F)C1=O (configuration not stated) | inactive | – |
| COc1ccc(NC(=O)c2ccco2)cc1NC(=O)COc1cc(C)ccc1C(C)C | inconclusive: 16.4 µM [cytotoxic, single point] | – |
| COc1ccc(NC(=O)COc2ccccc2C#N)c(S(=O)(=O)N2CCCCC2)c1 | inconclusive: 14.6 µM [cytotoxic, single point] | – |
| CCOc1ccc(NC(=O)c2c(NC(=O)c3ccncc3)sc3c2CCC(C(C)(C)C)C3)cc1 (configuration not stated) | inconclusive: 23.1 µM [cytotoxic, single point] | – |
| Cc1ccc(-c2noc(C3CCCN(C(=O)c4ccc(F)cc4F)C3)n2)cc1 (configuration not stated) | inconclusive: 23.1 µM [cytotoxic, single point] | – |
| CCOc1ccc(N2C(=O)CC(NC3CCN(C(=O)c4cccc(Cl)c4)CC3)C2=O)cc1 (configuration not stated) | inconclusive: 3.66 µM [rising, full curve] | – |
| COc1cccc(C(=O)C2CN(c3ccccc3)CC2c2ccc(Cl)cc2)c1 (configuration not stated) | active: 16.4 µM | – |
| COc1ccc(-c2nnc(SCC(=O)Nc3ccc(C)c(Cl)c3)nc2-c2ccc(OC)c(OC)c2)cc1OC | inactive | – |
| O=c1c2ccccc2nc2n1C(CSCc1ccc(Cl)cc1)CS2 (configuration not stated) | inconclusive: 8.2 µM [cytotoxic, partial curve] | – |
| O=C(c1cccn1-c1nnc(N2CCCC2)s1)N1CCN(c2ccc(F)cc2)CC1 | inactive | – |
| O=C(CNc1cccc2ccccc12)N/N=C/C=C/c1ccco1 | inactive | – |
| CCc1ccccc1N(C)C(=O)c1cc2c(Cl)nc3ccc(C)cc3c2s1 | inactive | – |
| O=C1Nc2ccc(Br)cc2/C1=C/C(=O)c1ccccc1 | inconclusive: 29.1 µM [cytotoxic, single point] | – |
| COc1ccc(Cc2c(C3CCCCC3)nc3ccc(Cl)cn23)c(C)c1 | inactive | – |
| CC1CCCCC1NC(=O)CCNS(=O)(=O)c1cc(Br)cnc1N (configuration not stated) | inactive | – |
| CCN(CC)C(=O)CN(Cc1ccccc1)S(=O)(=O)c1ccc(F)cc1 | inconclusive: 23.1 µM [cytotoxic, single point] | – |
| CC(=O)NCCn1c(SCC(=O)OCc2ccccc2)nc2ccccc2c1=O | inconclusive: 25.9 µM [cytotoxic, single point] | – |

| SMILES | Potency | activity change, negative = cytotoxicity |
| --- | --- | --- |
| CC1(C)OC(=O)C2=C(C[C@@H](C3CC3)O[C@H]2c2ccc(Cl)cc2)O1 | inconclusive: 20.6 µM [cytotoxic, single point] | – |
| Cc1cc(C(=O)N/N=C/c2ccncc2)c2ccccc2n1 | inactive | – |
| Cc1nn(-c2ccccc2)c2nc(C(F)(F)F)[nH]c(=O)c12 | inactive | – |
| Cc1onc(-c2ccccc2)c1C(=O)NNC(=S)NC(=O)c1ccc(Cl)cc1Cl | inconclusive: 25.9 µM [cytotoxic, single point] | – |
| CCc1ccc(NC(=O)Cn2nnc(C(=O)NCCc3ccccc3)c2N)cc1 | inconclusive: 13 µM [rising, partial curve, poor fit] | – |
| C/C(=C\c1ccccc1)C(=O)Nc1ccc(Cl)cn1 | inactive | – |
| CCOc1ccc(CCNC(=O)C2CCCN(c3nnc(-n4cccc4)s3)C2)cc1OCC (configuration not stated) | inconclusive: 1.16 µM [cytotoxic, full curve] | – |
| Nc1ccc(-c2nc3cc(N)ccc3n2CCO)cc1 | inconclusive: 32.6 µM [cytotoxic, single point] | – |
| COCCn1c(SCC(=O)N2CCCc3ccccc32)nc2c(c1=O)SC(C)C2 (configuration not stated) | inconclusive: 8.2 µM [cytotoxic, single point] | – |
| CCN(CC)C(=O)OCCc1cc2ccccc2c(=O)o1 | inconclusive: 0.231 µM [rising, full curve, poor fit] | – |
| O=C(N/N=C/C=C\c1ccc([N+](=O)[O-])cc1)c1cccnc1 | inconclusive: 29.1 µM [rising, single point] | – |
| Cn1nnnc1NCc1cccc(Cl)c1 | – | inconclusive: 31.6% |
| COc1cccc2cc(C(=O)N3CCN(c4ccccn4)CC3)c(=O)oc12 | inconclusive: 29.1 µM [cytotoxic, single point] | – |
| CC1CCCN(CCC(=O)c2ccccc2)C1 (configuration not stated) | inactive | – |
| Cc1nnc(SCC(=O)Nc2cccc([N+](=O)[O-])c2)n1CC1CCCO1 (configuration not stated) | inactive | – |
| O=C(c1ccc(-c2ccccc2)cc1)C1CCCN(C(=O)c2cncs2)C1 (configuration not stated) | inconclusive: 13 µM [cytotoxic, partial curve, poor fit] | – |
| Clc1cccc[n+]1CCc1ccccc1 | inactive | – |
| O=C(OCC(O)CO)c1ccccc1Nc1ccnc2cc(Cl)ccc12 (configuration not stated) | inconclusive: 29.1 µM [cytotoxic, single point] | – |
| CC(=O)OCC1=C(C(=O)O)N2C(=O)C(NC(=O)CCn3nc(C(F)(F)F)c(Br)c3C3CC3)C2SC1 (configuration not stated) | inactive | – |
| C#CC(C)OCC1CNC(=S)O1 (configuration not stated) | inactive | – |
| Cc1ccc(C)c(NC(=O)C(=O)NCCc2c[nH]c3ccccc23)c1 | inactive | – |
| CCc1nc2c(OCc3ccc(C(F)(F)F)cc3)cccn2c1N(C)C(=O)c1ccc(C)cc1 | inconclusive: 23.1 µM [cytotoxic, single point] | – |
| CCOC(=O)Cn1ccc(NC(=O)c2ccc3c(c2)OCO3)n1 | inactive | – |
| Cc1cc(C)c(NC(=S)NC(NC(=O)c2ccccc2)C(Cl)(Cl)Cl)c(C)c1 (configuration not stated) | inconclusive: 23.1 µM [cytotoxic, single point] | – |
